From patent publication US20070231899A1 (published 2007)
No constants are given. Whether binding was seen depends on the method and setting. Some entries that bind do so weakly or less than the wild type.

The chains behind the UniProt entries cited, without tags or fusion partners. Where a name states a change or a piece, a line headed by the entry shows the natural chain unless it says otherwise.
UniProt P00747: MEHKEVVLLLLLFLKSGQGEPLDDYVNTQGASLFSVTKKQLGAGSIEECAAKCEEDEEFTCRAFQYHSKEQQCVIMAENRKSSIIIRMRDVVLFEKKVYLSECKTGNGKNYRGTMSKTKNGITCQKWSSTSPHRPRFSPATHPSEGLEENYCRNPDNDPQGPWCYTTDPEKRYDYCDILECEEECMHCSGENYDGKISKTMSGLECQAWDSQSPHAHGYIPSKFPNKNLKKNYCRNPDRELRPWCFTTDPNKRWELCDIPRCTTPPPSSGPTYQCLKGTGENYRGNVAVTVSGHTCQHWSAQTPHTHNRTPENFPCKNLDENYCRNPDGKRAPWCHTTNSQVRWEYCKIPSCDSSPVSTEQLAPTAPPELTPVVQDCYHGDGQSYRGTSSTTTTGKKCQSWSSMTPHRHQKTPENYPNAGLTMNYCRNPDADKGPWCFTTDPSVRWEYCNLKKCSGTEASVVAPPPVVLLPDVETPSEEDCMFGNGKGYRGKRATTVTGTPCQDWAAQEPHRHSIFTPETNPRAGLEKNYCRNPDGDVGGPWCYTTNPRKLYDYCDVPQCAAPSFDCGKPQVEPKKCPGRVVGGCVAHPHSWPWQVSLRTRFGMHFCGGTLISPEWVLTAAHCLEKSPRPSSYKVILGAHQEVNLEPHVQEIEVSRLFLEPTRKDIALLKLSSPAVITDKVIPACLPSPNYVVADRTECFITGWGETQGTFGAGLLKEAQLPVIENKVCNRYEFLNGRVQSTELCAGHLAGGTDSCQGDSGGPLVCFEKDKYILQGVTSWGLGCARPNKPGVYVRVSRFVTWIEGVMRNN
UniProt P60902: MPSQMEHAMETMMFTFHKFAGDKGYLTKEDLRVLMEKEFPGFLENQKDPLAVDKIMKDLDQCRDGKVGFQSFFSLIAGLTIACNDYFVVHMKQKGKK

Target: plasmin (Homo sapiens (Human)) (UniProt P00747)
Assay: summary of Example 12

binding: binds
Substance: p11 (S100A10) (from UniProt P60902 2-97) (receptor)
